For the assay, the target named is Rpb10 sub-unit from RNA Polymerase II fused to split YFP. The experiment in a line: BiFC, split YFP (FIG. 8B).

No constants are given. Whether binding was seen depends on the method and setting. Binding calls can cover weak binding; strength is not graded here. Where a sequence is shown, tags or fusion partners need not be part of it.

B1: IYO fused to split YFP (nYFP or cYFP) (protein, not shown: large carriers)
chain: MEQSSGRVNPEQPNNVLASLVGSIVEKGISENKPPSKPLPPRPSLLSFPVARHRSHGPHLAPVGSSIAQPKDYNDDQEEEEAEERFMNADSIAAFAKPLQRKEKKDMDLGRWKDMVSGDDPASTHVPQQSRKLKIIETRPPYVASADAATTSSNTLLAARASDQREFVSDKAPFIKNLGTKERVPLNASPPLAVSNGLGTRHASSSLESDIDVENHAKLQTMSPDEIAEAQAELLDKMDPALLSILKKRGEAKLKKRKHSVQGVSITDETAKNSRTEGHFVTPKVMAIPKEKSVVQKPGIAQGFVWDAWTERVEAARDLRFSFDGNVVEEDVVSPAETGGKWSGVESAAERDFLRTEGDPGAAGYTIKEAIALARSVIPGQRCLALHLLASVLDKALNKLCQSRIGYAREEKDKSTDWEAIWAYALGPEPELVLALRMALDDNHASVVIACVKVIQCLLSCSLNENFFNILENMGPHGKDIFTASVFRSKPEIDLGFLRGCYWKYSAKPSNIVAFREEILDDGTEDTDTIQKDVFVAGQDVAAGLVRMDILPRIYHLLETEPTAALEDSIISVTIAIARHSPKCTTAILKYPKFVQTIVKRFQLNKRMDVLSSQINSVRLLKVLARYDQSTCMEFVKNGTFNAVTWHLFQFTSSLDSWVKLGKQNCKLSSTLMVEQLRFWKVCIHSGCCVSRFPELFPALCLWLSCPSFEKLREKNLISEFTSVSNEAYLVLEAFAETLPNMYSQNIPRNESGTWDWSYVSPMIDSALSWITLAPQLLKWEKGIESVSVSTTTLLWLYSGVMRTISKVLEKISAEGEEEPLPWLPEFVPKIGLAIIKHKLLSFSVADVSRFGKDSSRCSSFMEYLCFLRERSQDDELALASVNCLHGLTRTIVSIQNLIESARSKMKAPHQVSISTGDESVLANGILAESLAELTSVSCSFRDSVSSEWPIVQSIELHKRGGLAPGVGLGWGASGGGFWSTRVLLAQAGAGLLSLFLNISLSDSQNDQGSVGFMDKVNSALAMCLIAGPRDYLLVERAFEYVLRPHALEHLACCIKSNKKNISFEWECSEGDYHRMSSMLASHFRHRWLQQKGRSIAEEGVSGVRKGTVGLETIHEDGEMSNSSTQDKKSDSSTIEWAHQRMPLPPHWFLSAISAVHSGKTSTGPPESTELLEVAKAGVFFLAGLESSSGFGSLPSPVVSVPLVWKFHALSTVLLVGMDIIEDKNTRNLYNYLQELYGQFLDEARLNHRDTELLRFKSDIHENYSTFLEMVVEQYAAVSYGDVVYGRQVSVYLHQCVEHSVRLSAWTVLSNARVLELLPSLDKCLGEADGYLEPVEENEAVLEAYLKSWTCGALDRAATRGSVAYTLVVHHFSSLVFCNQAKDKVSLRNKIVKTLVRDLSRKRHREGMMLDLLRYKKGSANAMEEEVIAAETEKRMEVLKEGCEGNSTLLLELEKLKSAALCGRR
Regarding B1, the binding entry was “binds”.

(Values after patent US20140366224A1 (CONSEJO SUPERIOR DE INVESTIGACIONES CIENTIFICAS, published 2014).)
